The results in this text go back to PMC11074327.

By UniProt entry, the sequences of proteins in these tests, tags left out. Where a name states a change or a piece, a line headed by the entry shows the natural chain unless it says otherwise. Chains listed by the source or under a name are the forms on record and can include a tag or linker.
UniProt P35240: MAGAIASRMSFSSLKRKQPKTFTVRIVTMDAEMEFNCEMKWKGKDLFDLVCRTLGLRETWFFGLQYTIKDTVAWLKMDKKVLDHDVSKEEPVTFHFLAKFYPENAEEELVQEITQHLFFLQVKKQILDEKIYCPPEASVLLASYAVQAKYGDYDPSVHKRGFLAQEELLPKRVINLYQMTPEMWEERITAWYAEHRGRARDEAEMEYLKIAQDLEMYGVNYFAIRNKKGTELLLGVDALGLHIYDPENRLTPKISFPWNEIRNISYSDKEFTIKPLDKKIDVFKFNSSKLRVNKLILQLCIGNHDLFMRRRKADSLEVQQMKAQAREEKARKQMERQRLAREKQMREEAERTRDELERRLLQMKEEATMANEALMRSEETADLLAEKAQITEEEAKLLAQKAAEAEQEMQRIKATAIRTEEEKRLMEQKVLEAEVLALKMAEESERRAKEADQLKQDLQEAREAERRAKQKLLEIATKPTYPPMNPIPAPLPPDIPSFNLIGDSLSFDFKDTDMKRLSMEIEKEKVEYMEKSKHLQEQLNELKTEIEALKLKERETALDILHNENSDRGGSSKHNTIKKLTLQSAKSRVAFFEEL
UniProt Q7KN62: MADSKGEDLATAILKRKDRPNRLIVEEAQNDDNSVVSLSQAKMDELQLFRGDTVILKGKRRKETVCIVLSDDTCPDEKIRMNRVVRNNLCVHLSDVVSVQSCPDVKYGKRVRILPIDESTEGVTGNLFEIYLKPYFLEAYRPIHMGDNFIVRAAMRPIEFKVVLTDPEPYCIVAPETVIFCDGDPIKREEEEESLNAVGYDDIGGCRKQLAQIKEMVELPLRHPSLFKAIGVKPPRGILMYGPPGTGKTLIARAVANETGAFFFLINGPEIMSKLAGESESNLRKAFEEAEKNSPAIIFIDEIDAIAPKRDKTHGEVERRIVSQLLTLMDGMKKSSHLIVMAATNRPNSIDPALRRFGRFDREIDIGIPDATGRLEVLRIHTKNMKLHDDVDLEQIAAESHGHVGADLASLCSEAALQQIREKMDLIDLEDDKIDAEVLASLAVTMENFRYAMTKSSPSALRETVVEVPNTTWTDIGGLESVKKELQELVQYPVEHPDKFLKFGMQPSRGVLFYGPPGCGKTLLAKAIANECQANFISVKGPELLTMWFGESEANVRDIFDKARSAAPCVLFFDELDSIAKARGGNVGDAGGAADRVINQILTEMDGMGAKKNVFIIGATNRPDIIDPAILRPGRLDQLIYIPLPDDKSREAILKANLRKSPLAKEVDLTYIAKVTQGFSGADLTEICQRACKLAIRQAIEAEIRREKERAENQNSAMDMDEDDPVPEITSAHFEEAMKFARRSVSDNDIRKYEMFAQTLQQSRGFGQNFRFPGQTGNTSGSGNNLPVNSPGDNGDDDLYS
Fg-Ter94AA (Q7KN62, form named): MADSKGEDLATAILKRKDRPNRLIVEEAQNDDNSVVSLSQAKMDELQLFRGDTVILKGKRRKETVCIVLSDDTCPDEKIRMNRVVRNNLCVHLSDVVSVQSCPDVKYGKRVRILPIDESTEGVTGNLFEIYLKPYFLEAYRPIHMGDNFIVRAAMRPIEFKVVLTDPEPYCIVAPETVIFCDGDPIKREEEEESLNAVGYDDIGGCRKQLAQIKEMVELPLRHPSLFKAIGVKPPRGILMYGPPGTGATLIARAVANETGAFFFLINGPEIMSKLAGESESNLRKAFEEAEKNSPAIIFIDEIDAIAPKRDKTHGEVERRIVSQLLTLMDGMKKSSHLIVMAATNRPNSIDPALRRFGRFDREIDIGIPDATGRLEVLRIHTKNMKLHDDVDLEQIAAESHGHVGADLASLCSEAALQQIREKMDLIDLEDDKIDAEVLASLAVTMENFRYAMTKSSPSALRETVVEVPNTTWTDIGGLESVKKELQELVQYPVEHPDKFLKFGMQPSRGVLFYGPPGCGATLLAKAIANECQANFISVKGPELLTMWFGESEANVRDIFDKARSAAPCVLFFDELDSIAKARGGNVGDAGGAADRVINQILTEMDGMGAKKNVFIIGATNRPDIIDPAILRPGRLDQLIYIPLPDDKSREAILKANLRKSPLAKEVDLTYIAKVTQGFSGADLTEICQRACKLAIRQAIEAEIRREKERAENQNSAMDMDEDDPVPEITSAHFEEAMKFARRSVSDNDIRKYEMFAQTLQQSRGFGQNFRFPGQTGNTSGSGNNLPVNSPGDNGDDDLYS

Test [1] addresses Myc-NF2 (human) (UniProt P35240). The test is described as follows: co-IP; HEK-293T cells co-transfected with two tagged constructs (PEI), collected 48 h after transfection; IP with anti-Fg or anti-Myc, immunoblot. On the technique in general: Immunoblotting shows a protein as a band on a membrane.
The target of test [2] is T1, Myc-Mer (Drosophila) (UniProt Q24564).
T1 sequence: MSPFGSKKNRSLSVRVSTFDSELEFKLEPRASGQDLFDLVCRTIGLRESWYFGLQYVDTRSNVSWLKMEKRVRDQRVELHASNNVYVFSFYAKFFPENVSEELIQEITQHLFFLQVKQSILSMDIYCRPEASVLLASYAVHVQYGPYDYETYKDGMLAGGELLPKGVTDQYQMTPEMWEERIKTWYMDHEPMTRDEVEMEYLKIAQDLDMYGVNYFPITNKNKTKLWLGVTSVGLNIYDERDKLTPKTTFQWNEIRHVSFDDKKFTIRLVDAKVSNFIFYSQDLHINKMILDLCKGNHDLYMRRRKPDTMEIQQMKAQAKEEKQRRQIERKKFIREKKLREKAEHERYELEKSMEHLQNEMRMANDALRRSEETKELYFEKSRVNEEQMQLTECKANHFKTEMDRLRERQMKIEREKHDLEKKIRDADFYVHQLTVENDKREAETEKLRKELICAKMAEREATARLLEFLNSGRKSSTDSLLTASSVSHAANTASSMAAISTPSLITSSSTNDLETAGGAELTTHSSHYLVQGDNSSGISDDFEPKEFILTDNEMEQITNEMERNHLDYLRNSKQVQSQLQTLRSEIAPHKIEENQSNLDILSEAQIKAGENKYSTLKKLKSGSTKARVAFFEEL
Described as above.

Test [3] concerns the target T2, Myc-Mer-N (aa1-375) (Drosophila) (UniProt Q24564).
T2 sequence: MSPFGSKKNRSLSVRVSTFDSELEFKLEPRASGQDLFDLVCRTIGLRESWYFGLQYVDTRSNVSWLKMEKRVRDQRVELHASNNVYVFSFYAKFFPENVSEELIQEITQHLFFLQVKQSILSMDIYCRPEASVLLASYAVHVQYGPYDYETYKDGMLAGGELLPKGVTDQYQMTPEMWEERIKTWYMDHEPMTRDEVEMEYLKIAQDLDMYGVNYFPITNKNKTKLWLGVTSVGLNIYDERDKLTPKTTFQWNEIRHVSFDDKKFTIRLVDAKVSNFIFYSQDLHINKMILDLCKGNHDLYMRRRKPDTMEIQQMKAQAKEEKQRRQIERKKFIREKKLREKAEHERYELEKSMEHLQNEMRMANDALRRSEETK
The description is as above.

Test [4] deals with T3, The FERM domain in Mer (Drosophila) (UniProt Q24564).
T3 sequence: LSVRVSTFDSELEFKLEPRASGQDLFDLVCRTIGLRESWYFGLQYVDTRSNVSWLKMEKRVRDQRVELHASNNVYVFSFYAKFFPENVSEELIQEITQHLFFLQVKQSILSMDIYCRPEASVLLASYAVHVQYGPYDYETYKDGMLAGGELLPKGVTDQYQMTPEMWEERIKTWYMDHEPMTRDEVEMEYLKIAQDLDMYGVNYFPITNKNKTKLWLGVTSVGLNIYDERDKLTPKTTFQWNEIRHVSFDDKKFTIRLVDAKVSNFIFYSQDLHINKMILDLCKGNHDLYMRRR
Described as above.

The target in test [5] is T4, Fg-Mer (Drosophila) (UniProt Q24564).
T4 sequence: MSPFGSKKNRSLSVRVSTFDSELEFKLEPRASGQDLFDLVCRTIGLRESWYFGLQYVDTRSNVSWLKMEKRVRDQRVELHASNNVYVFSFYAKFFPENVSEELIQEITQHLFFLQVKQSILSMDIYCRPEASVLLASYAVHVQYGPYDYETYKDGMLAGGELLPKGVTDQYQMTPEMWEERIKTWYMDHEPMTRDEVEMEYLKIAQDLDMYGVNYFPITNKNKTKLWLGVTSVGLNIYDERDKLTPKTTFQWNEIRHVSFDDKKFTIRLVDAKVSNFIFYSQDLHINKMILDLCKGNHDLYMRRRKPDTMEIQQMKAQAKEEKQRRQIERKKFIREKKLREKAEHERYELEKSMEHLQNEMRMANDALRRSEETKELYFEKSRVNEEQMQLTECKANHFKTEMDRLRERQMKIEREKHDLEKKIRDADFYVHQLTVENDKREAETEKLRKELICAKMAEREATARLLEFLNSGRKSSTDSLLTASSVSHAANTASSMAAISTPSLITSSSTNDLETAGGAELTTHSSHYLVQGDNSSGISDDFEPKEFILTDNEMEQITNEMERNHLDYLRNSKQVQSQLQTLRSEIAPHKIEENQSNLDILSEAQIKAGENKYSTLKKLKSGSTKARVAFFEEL
The test is described as follows: co-IP; HEK-293T cells co-transfected with two tagged partners, with or without co-expressed HA-Ter94 (Fig. 7a-c) or HA-Ub-K63 (Fig. 7d-e); IP and immunoblot.

For test [6], the target named is T1, Myc-Mer (Drosophila). The description is as above.
In test [7] the target is T5, Myc-Ex (Drosophila) (UniProt Q07436).
T5 sequence: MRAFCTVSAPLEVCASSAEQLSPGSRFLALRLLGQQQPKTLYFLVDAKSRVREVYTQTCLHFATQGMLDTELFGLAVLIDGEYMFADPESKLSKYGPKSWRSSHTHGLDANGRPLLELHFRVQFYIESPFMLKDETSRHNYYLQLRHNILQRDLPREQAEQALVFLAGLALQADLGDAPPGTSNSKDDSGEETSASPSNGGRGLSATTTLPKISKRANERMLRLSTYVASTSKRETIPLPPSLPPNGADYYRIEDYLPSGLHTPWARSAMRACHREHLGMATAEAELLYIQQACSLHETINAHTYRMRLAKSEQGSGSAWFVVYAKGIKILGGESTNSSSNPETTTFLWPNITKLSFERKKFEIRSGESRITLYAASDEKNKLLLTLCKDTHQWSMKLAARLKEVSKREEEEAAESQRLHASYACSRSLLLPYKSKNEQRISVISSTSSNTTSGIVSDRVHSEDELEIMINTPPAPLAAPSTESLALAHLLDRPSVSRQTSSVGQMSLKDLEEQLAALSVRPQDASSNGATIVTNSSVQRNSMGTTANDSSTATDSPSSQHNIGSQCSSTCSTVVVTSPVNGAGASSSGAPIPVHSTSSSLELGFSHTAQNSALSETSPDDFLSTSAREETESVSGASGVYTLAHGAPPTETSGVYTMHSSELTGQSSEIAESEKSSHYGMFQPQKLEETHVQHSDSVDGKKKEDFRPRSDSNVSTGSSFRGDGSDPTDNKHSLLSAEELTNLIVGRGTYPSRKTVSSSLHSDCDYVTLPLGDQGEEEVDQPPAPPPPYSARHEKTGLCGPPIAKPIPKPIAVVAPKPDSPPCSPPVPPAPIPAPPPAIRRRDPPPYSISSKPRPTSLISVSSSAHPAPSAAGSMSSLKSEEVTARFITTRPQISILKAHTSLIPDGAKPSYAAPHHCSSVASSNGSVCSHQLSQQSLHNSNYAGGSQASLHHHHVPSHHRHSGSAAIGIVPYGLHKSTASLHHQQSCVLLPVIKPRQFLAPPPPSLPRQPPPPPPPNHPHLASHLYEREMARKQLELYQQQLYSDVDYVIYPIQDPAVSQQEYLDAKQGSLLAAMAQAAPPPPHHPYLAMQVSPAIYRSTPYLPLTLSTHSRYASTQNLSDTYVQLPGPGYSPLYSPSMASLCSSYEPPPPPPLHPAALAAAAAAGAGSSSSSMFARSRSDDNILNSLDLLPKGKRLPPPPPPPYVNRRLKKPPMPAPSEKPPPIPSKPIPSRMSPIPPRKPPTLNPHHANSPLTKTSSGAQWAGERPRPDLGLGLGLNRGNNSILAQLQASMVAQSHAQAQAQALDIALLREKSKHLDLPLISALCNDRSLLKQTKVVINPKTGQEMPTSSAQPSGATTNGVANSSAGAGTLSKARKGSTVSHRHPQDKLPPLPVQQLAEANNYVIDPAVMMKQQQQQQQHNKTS
The description is as above.

Test [8] deals with T6, Fg-Mer^1-600 (Drosophila) (UniProt Q24564).
T6 sequence: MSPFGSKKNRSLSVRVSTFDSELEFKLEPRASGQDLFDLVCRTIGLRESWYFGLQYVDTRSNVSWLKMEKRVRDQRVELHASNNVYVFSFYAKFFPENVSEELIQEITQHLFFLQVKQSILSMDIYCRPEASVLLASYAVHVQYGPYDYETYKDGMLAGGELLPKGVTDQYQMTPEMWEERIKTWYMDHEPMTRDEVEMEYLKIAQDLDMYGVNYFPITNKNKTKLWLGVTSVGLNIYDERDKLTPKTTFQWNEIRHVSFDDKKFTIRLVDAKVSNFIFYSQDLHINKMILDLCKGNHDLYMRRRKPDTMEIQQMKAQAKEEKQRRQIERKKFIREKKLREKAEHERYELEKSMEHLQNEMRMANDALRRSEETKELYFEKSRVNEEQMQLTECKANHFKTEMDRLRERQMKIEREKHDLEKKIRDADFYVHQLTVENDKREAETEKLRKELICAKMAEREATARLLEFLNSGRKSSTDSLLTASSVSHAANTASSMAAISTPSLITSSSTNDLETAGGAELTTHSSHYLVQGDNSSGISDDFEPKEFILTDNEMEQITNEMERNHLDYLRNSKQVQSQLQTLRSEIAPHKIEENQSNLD
Described as above.

No constants are given. Whether binding was seen depends on the method and setting. In cells and extracts the contact can be indirect. Some binding calls cover weakened binding; strength is not graded here. For some of these results: Sequences can lack the tags named with a protein.

In the case of Fg-hVCP (from UniProt P55072 1-806), the binding entry in test [1] and in test [2] was “binds” throughout. Turning to Fg-Ter94 (from UniProt Q7KN62 1-801), the binding result in test [3], in test [2] and in test [4] was “binds” in each case.

On to Fg-Ter94AA (from UniProt Q7KN62 1-801), for which the binding entry in test [2] is recorded as “binds”.

With HA-Ter94 (from UniProt Q7KN62 1-801), the binding entry in test [5] and in test [6] was “binds” each time.

B1: Fg-Mer (protein, UniProt Q24564 1-635)
chain: MSPFGSKKNRSLSVRVSTFDSELEFKLEPRASGQDLFDLVCRTIGLRESWYFGLQYVDTRSNVSWLKMEKRVRDQRVELHASNNVYVFSFYAKFFPENVSEELIQEITQHLFFLQVKQSILSMDIYCRPEASVLLASYAVHVQYGPYDYETYKDGMLAGGELLPKGVTDQYQMTPEMWEERIKTWYMDHEPMTRDEVEMEYLKIAQDLDMYGVNYFPITNKNKTKLWLGVTSVGLNIYDERDKLTPKTTFQWNEIRHVSFDDKKFTIRLVDAKVSNFIFYSQDLHINKMILDLCKGNHDLYMRRRKPDTMEIQQMKAQAKEEKQRRQIERKKFIREKKLREKAEHERYELEKSMEHLQNEMRMANDALRRSEETKELYFEKSRVNEEQMQLTECKANHFKTEMDRLRERQMKIEREKHDLEKKIRDADFYVHQLTVENDKREAETEKLRKELICAKMAEREATARLLEFLNSGRKSSTDSLLTASSVSHAANTASSMAAISTPSLITSSSTNDLETAGGAELTTHSSHYLVQGDNSSGISDDFEPKEFILTDNEMEQITNEMERNHLDYLRNSKQVQSQLQTLRSEIAPHKIEENQSNLDILSEAQIKAGENKYSTLKKLKSGSTKARVAFFEEL
For the molecule B1, the binding entry in test [7] was “binds”.

B2: Myc-Wts (protein, UniProt Q9VA38 1-1105)
chain: MHPAGEKRGGRPNDKYTAEALESIKQDLTRFEVQNNHRNNQNYTPLRYTATNGRNDALTPDYHHAKQPMEPPPSASPAPDVVIPPPPAIVGQPGAGSISVSGVGVGVVGVANGRVPKMMTALMPNKLIRKPSIERDTASSHYLRCSPALDSGAGSSRSDSPHSHHTHQPSSRTVGNPGGNGGFSPSPSGFSEVAPPAPPPRNPTACSAATPPPPVPPTSQAYVKRRSPALNNRPPAIAPPTQRGNSPVITQNGLKNPQQQLTQQLKSLNLYPGGGSGAVVEPPPPYLIQGGAGGAAPPPPPPSYTASMQSRQSPTQSQQSDYRKSPSSGIYSATSAGSPSPITVSLPPAPLAKPQPRVYQARSQQPIIMQSVKSTQVQKPVLQTAVAPQSPSSASASNSPVHVLAAPPSYPQKSAAVVQQQQQAAAAAHQQQHQHQQSKPPTPTTPPLVGLNSKPNCLEPPSYAKSMQAKAATVVQQQQQQQQQQQQVQQQQVQQQQQQQQQQLQALRVLQAQAQRERDQRERDQRERERDQQKLANGNPGRQMLPPPPYQSNNNNNSEIKPPSCNNNNIQISNSNLATTPPIPPAKYNNNSSNTGANSSGGSNGSTGTTASSSTSCKKIKHASPIPERKKISKEKEEERKEFRIRQYSPQAFKFFMEQHIENVIKSYRQRTYRKNQLEKEMHKVGLPDQTQIEMRKMLNQKESNYIRLKRAKMDKSMFVKLKPIGVGAFGEVTLVSKIDTSNHLYAMKTLRKADVLKRNQVAHVKAERDILAEADNNWVVKLYYSFQDKDNLYFVMDYIPGGDLMSLLIKLGIFEEELARFYIAEVTCAVDSVHKMGFIHRDIKPDNILIDRDGHIKLTDFGLCTGFRWTHNSKYYQENGNHSRQDSMEPWEEYSENGPKPTVLERRRMRDHQRVLAHSLVGTPNYIAPEVLERSGYTQLCDYWSVGVILYEMLVGQPPFLANSPLETQQKVINWEKTLHIPPQAELSREATDLIRRLCASADKRLGKSVDEVKSHDFFKGIDFADMRKQKAPYIPEIKHPTDTSNFDPVDPEKLRSNDSTMSSGDDVDQNDRTFHGFFEFTFRRFFDDKQPPDMTDDQAPVYV
For B2, the binding entry in test [8] is “binds”.
